Test results reported in paper PMC11440836.
Results are given in words; binding and its absence hold for the method and conditions named. In cells and extracts the contact can be indirect. Some results given as binding are weak or reduced against the parent protein; the word gives no strength.

Sequences of proteins named here, by UniProt entry; tags and fusion partners are left off.
UniProt Q9UBB5: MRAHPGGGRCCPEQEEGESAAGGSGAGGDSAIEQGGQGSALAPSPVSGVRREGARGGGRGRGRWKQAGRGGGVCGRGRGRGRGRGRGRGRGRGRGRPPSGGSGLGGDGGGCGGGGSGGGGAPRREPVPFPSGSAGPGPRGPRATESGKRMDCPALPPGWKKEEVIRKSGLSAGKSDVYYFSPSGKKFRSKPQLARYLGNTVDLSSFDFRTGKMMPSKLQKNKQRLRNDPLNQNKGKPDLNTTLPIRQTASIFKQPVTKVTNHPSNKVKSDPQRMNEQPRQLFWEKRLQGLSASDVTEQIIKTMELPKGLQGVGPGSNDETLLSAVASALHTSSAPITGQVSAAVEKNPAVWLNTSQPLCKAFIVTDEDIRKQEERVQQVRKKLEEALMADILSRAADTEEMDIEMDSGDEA
UniProt Q13547: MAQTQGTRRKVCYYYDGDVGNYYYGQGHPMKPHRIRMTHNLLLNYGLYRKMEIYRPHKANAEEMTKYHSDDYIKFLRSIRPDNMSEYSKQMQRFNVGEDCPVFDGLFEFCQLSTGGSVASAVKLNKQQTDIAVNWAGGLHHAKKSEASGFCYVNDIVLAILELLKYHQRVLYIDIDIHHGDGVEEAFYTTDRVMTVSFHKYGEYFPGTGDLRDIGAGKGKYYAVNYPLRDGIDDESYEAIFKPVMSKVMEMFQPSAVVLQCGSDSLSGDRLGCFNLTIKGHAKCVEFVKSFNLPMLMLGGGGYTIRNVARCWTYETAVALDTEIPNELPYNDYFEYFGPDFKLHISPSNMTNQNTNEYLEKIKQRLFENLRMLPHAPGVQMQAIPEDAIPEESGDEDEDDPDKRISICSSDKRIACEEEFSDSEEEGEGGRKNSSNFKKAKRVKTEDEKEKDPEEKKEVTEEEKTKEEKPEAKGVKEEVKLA
UniProt Q92769: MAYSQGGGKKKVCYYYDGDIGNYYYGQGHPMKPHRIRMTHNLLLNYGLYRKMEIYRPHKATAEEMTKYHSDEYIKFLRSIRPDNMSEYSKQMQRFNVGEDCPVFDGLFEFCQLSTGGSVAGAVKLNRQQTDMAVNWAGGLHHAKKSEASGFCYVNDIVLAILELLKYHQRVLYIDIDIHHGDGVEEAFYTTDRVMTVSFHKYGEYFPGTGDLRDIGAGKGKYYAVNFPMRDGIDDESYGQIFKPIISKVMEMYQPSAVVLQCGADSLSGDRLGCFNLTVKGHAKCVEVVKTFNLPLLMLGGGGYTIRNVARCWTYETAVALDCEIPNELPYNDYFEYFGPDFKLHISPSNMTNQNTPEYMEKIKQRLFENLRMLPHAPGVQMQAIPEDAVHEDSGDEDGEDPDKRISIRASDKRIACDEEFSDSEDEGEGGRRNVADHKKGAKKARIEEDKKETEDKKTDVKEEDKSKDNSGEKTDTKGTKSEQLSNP

Molecular target: MBD2 (Methyl-CpG-binding domain 2), full length, Flag-tagged (UniProt Q9UBB5)
Assay: co-IP; lysates of transfected 293T, TFK1 or RBE cells in IP buffer; A/G magnetic beads + antibody or Flag-coupled magnetic beads, 4 °C, 12 h; five washes; immunoblot

| Substance | binding |
| --- | --- |
| HDAC1 (histone deacetylase 1) (from UniProt Q13547 1-482) (enzyme) | binds |
| HDAC2 (histone deacetylase 2) (from UniProt Q92769 1-488) (enzyme) | binds |
